We go through 29 molecules from PubChem BioAssay (NCATS).

Experiment [1] in a line: A High-Content qHTS Against Drug Library for the Identification of Small Molecules that Inhibit DYT1 Early Onset Primary Dystonia-Associated Cell Pathology (AID 1645839). The note with it: HEK293 Flp-In EGFP-delE TorsinA, punctate imaging, 48 h; measured here: cell count cytotoxicity. The method, boiled down:
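Induced EGFP-delE TorsinA cells are imaged after 48 h of compound treatment. Punctate fusion-protein distribution gives the %pathology value, while nuclei counts flag toxicity. Wild-type EGFP-hTOR1A cells define the normal pattern.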
(In general: qHTS replaces the single test concentration by a dilution series.)

The nature of experiment [2]: qHTS Assay for Inhibitors of PDE-IV (AID 607). The settings on record: HEK293 ACTOne CNG channel cells, membrane potential fluorescence; measured here: parental cell counter-screen. The method, boiled down:
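ACTOne HEK293 cells carry a modified cAMP-gated CNG channel and express endogenous PDE4; plated 1000 cells/well, compounds up to 22.9 uM final. Membrane-potential dye fluorescence (ex 535/em 590) was read; parental cells received 10 uM forskolin + 100 uM RO 20-1724.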

A short description of experiment [3]: qHTS Assay for Lipid Storage Modulators (AID 1519). The note with it: Drosophila S3 cells, BODIPY lipid droplet/cell ratio, laser cytometry, cells loaded with oleic acid; for AC50: measured here: lipid (BODIPY) channel AC50. The method, boiled down:
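Cells seeded at 5,000 per well were treated with compounds over a concentration series and loaded with oleic acid (400 uM, as added). Lipid droplet fluorescence (488 nm excitation, 500-530 nm channel) was read by laser-scanning cytometry and normalized to 20 uM Triacsin C.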

Experiment [4] is described as follows: qHTS Validation Assay to Find Inhibitors of Chronic Active B-Cell Receptor Signaling (AID 485345). The note with it: ABC-DLBCL cells, chronic BCR signaling reporter. Summed up:
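TMD8 ABC-DLBCL cells with dox-inducible green luciferase–IκBα fusion and red native luciferase; compounds 46 uM–3 nM, 4 h at 37C with doxycycline in 0.5% FBS IMDM. Green/red ratio normalized to basal and 10 uM MG-132.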

Experiment [5] can be described thus: qHTS assay for small molecule antagonists of peroxisome proliferator-activated receptor gamma signaling (AID 588537). The settings on record: HEK293 PPARg-UAS-bla, beta-lactamase ratio, antagonist mode; measured here: W460 blue channel. The method, boiled down:
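HEK293 cells, PPAR-gamma-UAS-bla, 3000/well. Pre-incubation 6-6.5 h, 37 C. Compound titration with rosiglitazone 50 nM final, 16 h. CCF4 dye, 2 h RT, dual-emission fluorescence.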

The nature of experiment [6]: S16 Schwann cell PMP22 intronic element beta-lactamase assay (AID 624044). The settings on record: S16 rat Schwann cells, PMP22 element beta-lactamase FRET, 24 h. Summed up: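 Beta-lactamase reporter under a PMP22 intronic regulatory element in stable S16 rat Schwann cells; 24 h compound exposure. 460 nm blue signal normalized between DMSO (0%) and potassium clavulanate, with 535 nm FRET tracking viability; curves classed by r2 and response.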

Experiment [7] in a line: qHTS assay for small molecule antagonists of peroxisome proliferator-activated receptor delta signaling (AID 588535).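 Further: cells co-treated with a PPAR-delta agonist as stimulator during compound exposure.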 The settings on record: HEK293T PPARd-UAS-bla, beta-lactamase FRET ratio, 18 h; 460 nm channel. Summed up: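 Compounds tested in titration on PPAR-delta-UAS-bla HEK293T cells grown in charcoal/dextran-stripped serum (2%); beta-lactamase activity read via CCF4 emission at 460 and 530 nm.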

Experiment [8] is described as follows: qHTS assay for small molecule agonists of retinoid X receptor alpha signaling (AID 588544). The settings on record: HEK293T RXRa-UAS-bla, beta-lactamase reporter, 18 h; 530 nm emission.
A short description of experiment [9]: qHTS assay for small molecule antagonists of retinoid X receptor alpha signaling (AID 588546).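 Further: cells stimulated with 9-cis-retinoic acid as agonist; on the % scale 0 is the no-effect control and ±100 the full control effect.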 The settings on record: HEK293T RXRa-UAS-bla, beta-lactamase ratio, antagonist mode; measured here: W530 green channel, cytotoxicity proxy. Summed up: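 Beta-lactamase reporter inhibition, read as CCF4 fluorescence ratio (ex 405, em 460/530 nm) after 2 h at RT. HEK293T UAS-bla cells, 2500/well, were stimulated with 9-cis-RA at 500 or 100 nM final alongside test compound for 18 h at 37 C.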

Experiment [10] is described as follows: Nrf2 qHTS screen for inhibitors: Validation (AID 493153). The note with it: A549 ARE-Fluc reporter, 18-24 h; AC50: CellTiter-Fluor fluorescence read, measured here: cytotoxicity CellTiter-Fluor AC50; viability change: measured here: cytotoxicity max response. The method, boiled down: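 Concentration-response test in A549 ARE_Fluc reporter cells (5% FBS OPTI-MEM), compound exposure 18-24 h at 37°C, 5% CO2. Cell viability measured first by CellTiter-Fluor fluorescence; ARE-driven luciferase luminescence then measured as Nrf2 activity.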

[11] abbreviates: measured here: cell count channel max response.
[12] abbreviates: measured here: lipid channel max response.
Setting [13] is: measured here: CBR control luciferase (viability counter).
[14] abbreviates: measured here: 460 nm blue channel.

Several values for one entry are separate records, joined by “and”; a condition that tells them apart may be missing. Identical values can stand only once. This is one part of the list. The main result of the screen is listed elsewhere. These columns were measured beside it and carry no call. Compounds called inactive in the main read-out are mostly missing here. For part of these data: Words in brackets tell the shape of the fitted curve; partial curves, single points and poor fits give uncertain potencies.

On to `C=CCSCC1Nc2cc(Cl)c(S(N)(=O)=O)cc2S(=O)(=O)N1` (stereo not drawn), for which, in [1], the AC50 was 11.2 µM [rising, single point].

`CNCC[C@H](Oc1ccccc1OC)c1ccccc1`: in experiment [2], the concentration at half-maximal activity (AC50) was 12.6 µM [rising, partial curve, poor fit]. In addition, the max response is 22.7% in [3] (setting [11]) and 27.3% in experiment [3] (setting [12]).

Regarding `CC(=O)C(C)=O`, the values for the max response in experiment [3] (setting [11]) and in [3] (setting [12]) were 35.2% and 32.2%, respectively. Moreover, the AC50 in experiment [4] (setting [13]) was 0.92 µM [rising, full curve, poor fit].

As for `Cn1c(=O)c2c(ncn2C)n(C)c1=O`, the max response in experiment [3] (setting [11]) amounted to 47.3%; in experiment [3] (setting [12]) it was 48%. In [5], the AC50 was 50.1 µM [rising, single point].

Regarding `CC(C)(C)c1ccc(S(=O)(=O)/C=C\C#N)cc1`, the AC50 was 15.8 µM [rising, partial curve] in experiment [2] and 8.91 µM [falling, full curve, poor fit] in experiment [3].

As to `Cc1ccc(N)cc1O`, in experiment [1], the AC50 was 12.6 µM [falling, full curve].

`O=c1[nH]cnc2nc[nH]c12`: the AC50 in [1] is 35.5 µM [rising, single point].

As to `O=C(OCC1OC(OC(=O)c2cc(O)c(O)c(OC(=O)c3cc(O)c(O)c(O)c3)c2)[C@@H](OC(=O)c2cc(O)c(O)c(OC(=O)c3cc(O)c(O)c(O)c3)c2)C(OC(=O)c2cc(O)c(O)c(OC(=O)c3cc(O)c(O)c(O)c3)c2)C1OC(=O)c1cc(O)c(O)c(OC(=O)c2cc(O)c(O)c(O)c2)c1)c1cc(O)c(O)c(OC(=O)c2cc(O)c(O)c(O)c2)c1` (stereo partly drawn), the results for the max response in experiment [3] (setting [11]) and in [3] (setting [12]) were -4.64% and 23.8%, respectively. Further, the concentration at half-maximal activity (AC50) in experiment [6] (setting [14]) was 22.4 µM [falling, partial curve].

As to `COc1cccc(Nc2ncc3ncc(=O)n(Cc4cccs4)c3n2)c1`, the concentration at half-maximal activity (AC50) in [2] is 10 µM [rising, single point]. Moreover, the max response is -10.9% in experiment [3] (setting [11]) and -30.1% in experiment [3] (setting [12]).

In the case of `O=C(c1cccc(F)c1)N1CCC[C@@]2(CCN(c3cccc(-c4ccccc4)c3)C2)C1`, in [2], the AC50 is 3.98 µM [rising, single point]. In addition, the max response was -0.63% in experiment [3] (setting [11]) and -57.7% in [3] (setting [12]).

Turning to `CCN(CC)CCOC(=O)C(c1ccccc1)C1CCCCC1` (stereo not drawn), the half-maximal activity concentration (AC50) in experiment [1] was 20 µM [falling, single point].

Consider `COc1cc(COc2cc(N)c(Cl)cc2C(=O)CCC2CCN(CCNS(C)(=O)=O)CC2)cc(OC)c1`, for which the half-maximal activity concentration (AC50) in [2] was 20 µM [rising, single point]. Besides, the max response in experiment [3] (setting [11]) was 98.8%; in experiment [3] (setting [12]), 103%.

As to `Brc1c(Br)c(Br)c2n[nH]nc2c1Br`, the max response in [3] (setting [11]) turned out to be 56.5%; in experiment [3] (setting [12]), 57.5%. Moreover, the AC50 in experiment [4] (setting [13]) was 6.51 µM [falling, partial curve].

As for `O=C(O)CCCCC1CCSS1` (stereo not drawn), the max response in experiment [3] (setting [11]) was 58.8%; in experiment [3] (setting [12]) it was 61.7%; in [7] it was 91.5%; in [8], 29% and 13.2%; in experiment [9] it was 12.9%. Also, the AC50 in [5] is 70.8 µM [rising, single point].

Take `CN(C)c1cc(NC(=O)CNC(C)(C)C)c(O)c2c1C[C@@H]1C[C@H]3[C@H](N(C)C)C(=O)C(C(N)=O)=C(O)[C@@]3(O)C(=O)C1=C2O`: the concentration at half-maximal activity (AC50) in experiment [1] is 35.5 µM [rising, single point].

With `O=C(CCCl)NCCc1ccccc1`, the concentration at half-maximal activity (AC50) in [1] is 5.01 µM [rising, full curve, poor fit].

`CN1CCN(CCC(=O)N2c3ccccc3Sc3ccc(C(F)(F)F)cc32)CC1`: the AC50 in experiment [1] was 4.47 µM [falling, full curve, poor fit].

As for `Oc1ccc(CCNCCCCCCNCCc2ccccc2)cc1O`, in [1], the AC50 is 35.5 µM [falling, partial curve, poor fit].

On to `Cc1cccc(C)c1NC(=O)c1cc(S(N)(=O)=O)c(Cl)cc1O`, for which the AC50 in experiment [1] was 6.31 µM [rising, partial curve].

`COc1cccc(OC)c1OCCNCC1CSc2ccccc2O1` (stereo not drawn): the max response in [3] (setting [11]) was 70.7%; in experiment [3] (setting [12]), 75.2%. Further, in [4] (setting [13]), the AC50 was 32.6 µM [rising, single point].

On to `Cc1noc(C)c1C(=O)N1CCC[C@@]2(CCN(c3cccc(-c4ccccc4)c3)C2)C1`, for which the concentration at half-maximal activity (AC50) in experiment [2] was 10 µM [rising, single point]. In addition, the max response in experiment [3] (setting [11]) was 2.68%; in [3] (setting [12]), -50.3%.

Consider `O=c1oc(Cl)c(Cl)c2ccccc12`, for which the max response in experiment [3] (setting [11]) was 38.5%; in experiment [3] (setting [12]) it was 39.2%. Also, in experiment [4] (measured here: CBG/CBR ratio read-out), the AC50 was 3.66 µM [falling, full curve].

With `CC(=O)Nc1ccc(OCCOCCOc2ccc(NC(C)=O)cc2)cc1`, the AC50 in experiment [1] is 10 µM [falling, partial curve, poor fit].

For `CC(C)C[C@H](NC(=O)C1OC1C(=O)O)C(=O)NCCCCN=C(N)N` (stereo partly drawn), the max response in experiment [3] (setting [11]) amounted to 35.7%. Further, the max response in experiment [3] (setting [12]) came to 34.7%. Besides, in [10], the AC50 was 14.6 µM [falling, partial curve] and the viability change was -49.3%.

On to `CCN(CC)CCOc1ccccc1C(=O)CCc1ccccc1`, for which the AC50 in [1] was 20 µM [falling, partial curve, poor fit].

Take `C#C[C@]1(O)CC[C@H]2[C@@H]3CCC4=CC(=O)CC[C@@H]4[C@H]3CC[C@@]21C`: the half-maximal activity concentration (AC50) in experiment [1] was 0.501 µM [falling, full curve, poor fit].

Turning to `COc1cc(C2c3cc4c(cc3C(O[C@@H]3OC5COC(c6cccs6)OC5C(O)C3O)C3COC(=O)C23)OCO4)cc(OC)c1O` (stereo partly drawn), the AC50 in experiment [3] was 5.01 µM [falling, partial curve]; in experiment [6] (setting [14]), 0.446 µM [falling, full curve, poor fit]; in [6] (measured here: 530 nm viability channel), 2.82 µM [rising, partial curve].

For `CS(=O)(=O)N1CCC[C@@]2(CCN(C(c3ccccc3)c3ccccc3)C2)C1`, the AC50 is 10 µM [rising, single point] in experiment [2] and 10 µM [falling, partial curve] in [3].

Turning to `Cc1ccc(O)c([C@H](CCN(C(C)C)C(C)C)c2ccccc2)c1`, in experiment [1], the half-maximal activity concentration (AC50) was 0.891 µM [falling, full curve, poor fit].

The term AC50 denotes the concentration at which the activity in the assay is half-maximal.
